Reference: article PMC5432265
Results are given in words; binding and its absence hold for the method and conditions named. Binding seen in cells or lysates may run through a third protein. Some binding calls cover weakened binding; strength is not graded here. Blank lines part the entries; values can stand above or below the molecule they belong to.

Amino acid sequences for entries named in this document (tags omitted).
UniProt Q08211: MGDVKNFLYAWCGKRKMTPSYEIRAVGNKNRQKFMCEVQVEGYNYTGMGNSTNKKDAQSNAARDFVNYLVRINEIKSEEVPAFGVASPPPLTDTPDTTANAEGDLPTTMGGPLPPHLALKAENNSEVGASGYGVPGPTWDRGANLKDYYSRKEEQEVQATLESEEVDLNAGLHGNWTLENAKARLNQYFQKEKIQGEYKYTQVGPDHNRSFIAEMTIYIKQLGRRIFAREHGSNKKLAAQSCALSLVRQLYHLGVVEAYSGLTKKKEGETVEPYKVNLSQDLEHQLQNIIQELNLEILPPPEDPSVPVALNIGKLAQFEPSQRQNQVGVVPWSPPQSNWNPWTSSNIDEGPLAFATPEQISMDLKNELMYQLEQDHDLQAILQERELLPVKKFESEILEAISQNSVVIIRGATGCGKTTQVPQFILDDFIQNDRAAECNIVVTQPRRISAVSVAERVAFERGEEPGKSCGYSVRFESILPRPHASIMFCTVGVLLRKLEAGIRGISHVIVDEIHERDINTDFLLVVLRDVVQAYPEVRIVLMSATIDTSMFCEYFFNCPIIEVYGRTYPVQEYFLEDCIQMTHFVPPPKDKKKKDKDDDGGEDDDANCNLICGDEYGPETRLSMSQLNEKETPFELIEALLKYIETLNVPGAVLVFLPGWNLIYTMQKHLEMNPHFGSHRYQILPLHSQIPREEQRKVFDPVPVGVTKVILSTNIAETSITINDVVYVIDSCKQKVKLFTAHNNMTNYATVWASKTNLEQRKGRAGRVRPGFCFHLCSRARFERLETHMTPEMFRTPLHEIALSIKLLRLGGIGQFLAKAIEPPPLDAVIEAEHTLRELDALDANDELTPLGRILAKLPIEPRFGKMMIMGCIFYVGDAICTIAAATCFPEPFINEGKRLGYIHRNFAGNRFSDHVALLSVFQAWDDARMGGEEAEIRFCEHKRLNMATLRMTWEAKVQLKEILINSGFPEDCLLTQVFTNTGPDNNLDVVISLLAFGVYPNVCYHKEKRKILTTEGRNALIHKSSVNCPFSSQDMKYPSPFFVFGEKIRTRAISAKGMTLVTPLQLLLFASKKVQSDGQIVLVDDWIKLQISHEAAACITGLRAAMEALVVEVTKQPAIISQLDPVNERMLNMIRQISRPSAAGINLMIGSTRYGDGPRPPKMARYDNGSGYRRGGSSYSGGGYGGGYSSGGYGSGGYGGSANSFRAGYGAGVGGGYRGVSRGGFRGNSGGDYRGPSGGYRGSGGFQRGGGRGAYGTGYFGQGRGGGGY
UniProt P49736: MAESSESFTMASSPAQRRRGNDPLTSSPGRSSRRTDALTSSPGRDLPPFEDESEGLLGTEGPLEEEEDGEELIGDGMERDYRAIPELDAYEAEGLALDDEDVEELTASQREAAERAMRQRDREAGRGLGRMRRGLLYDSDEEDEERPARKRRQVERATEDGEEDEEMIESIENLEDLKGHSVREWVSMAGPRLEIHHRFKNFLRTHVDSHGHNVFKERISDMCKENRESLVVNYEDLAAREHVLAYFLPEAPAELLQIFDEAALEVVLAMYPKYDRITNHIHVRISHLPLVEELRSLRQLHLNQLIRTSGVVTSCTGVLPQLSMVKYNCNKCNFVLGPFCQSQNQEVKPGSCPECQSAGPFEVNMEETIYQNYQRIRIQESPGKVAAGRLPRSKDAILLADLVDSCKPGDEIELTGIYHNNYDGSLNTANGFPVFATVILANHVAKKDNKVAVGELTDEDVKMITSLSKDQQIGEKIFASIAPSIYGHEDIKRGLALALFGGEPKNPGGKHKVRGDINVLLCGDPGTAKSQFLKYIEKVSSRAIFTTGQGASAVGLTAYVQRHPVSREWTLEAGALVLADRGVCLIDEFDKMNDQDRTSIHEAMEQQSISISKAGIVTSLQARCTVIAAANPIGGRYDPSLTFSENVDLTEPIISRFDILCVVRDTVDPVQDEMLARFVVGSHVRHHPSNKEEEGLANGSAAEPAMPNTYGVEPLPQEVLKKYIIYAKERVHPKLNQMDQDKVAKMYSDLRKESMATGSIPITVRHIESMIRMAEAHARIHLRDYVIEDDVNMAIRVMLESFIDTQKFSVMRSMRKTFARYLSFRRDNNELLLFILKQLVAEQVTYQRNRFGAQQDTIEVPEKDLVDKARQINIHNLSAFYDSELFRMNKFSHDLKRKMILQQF

Target: DExH-box helicase 9 (human (endogenous in 293T, MNNG/HOS, U2OS)) (UniProt Q08211)
Experiment: co-IP; whole-cell lysates of MNNG/HOS immunoprecipitated with anti-DHX9 antibody (IgG as negative control); immunoblotting with anti-MCM2, MCM3 and DHX9 antibodies

binding: binds
Molecule: minichromosome maintenance protein 2 (from UniProt P49736 1-904)

binding: binds
B1: minichromosome maintenance protein 3 (protein, UniProt P25205 1-808)
chain: MAGTVVLDDVELREAQRDYLDFLDDEEDQGIYQSKVRELISDNQYRLIVNVNDLRRKNEKRANRLLNNAFEELVAFQRALKDFVASIDATYAKQYEEFYVGLEGSFGSKHVSPRTLTSCFLSCVVCVEGIVTKCSLVRPKVVRSVHYCPATKKTIERRYSDLTTLVAFPSSSVYPTKDEENNPLETEYGLSVYKDHQTITIQEMPEKAPAGQLPRSVDVILDDDLVDKAKPGDRVQVVGTYRCLPGKKGGYTSGTFRTVLIACNVKQMSKDAQPSFSAEDIAKIKKFSKTRSKDIFDQLAKSLAPSIHGHDYVKKAILCLLLGGVERDLENGSHIRGDINILLIGDPSVAKSQLLRYVLCTAPRAIPTTGRGSSGVGLTAAVTTDQETGERRLEAGAMVLADRGVVCIDEFDKMSDMDRTAIHEVMEQGRVTIAKAGIHARLNARCSVLAAANPVYGRYDQYKTPMENIGLQDSLLSRFDLLFIMLDQMDPEQDREISDHVLRMHRYRAPGEQDGDAMPLGSAVDILATDDPNFSQEDQQDTQIYEKHDNLLHGTKKKKEKMVSAAFMKKYIHVAKIIKPVLTQESATYIAEEYSRLRSQDSMSSDTARTSPVTARTLETLIRLATAHAKARMSKTVDLQDAEEAVELVQYAYFKKVLEKEKKRKKRSEDESETEDEEEKSQEDQEQKRKRRKTRQPDAKDGDSYDPYDFSDTEEEMPQVHTPKTADSQETKESQKVELSESRLKAFKVALLDVFREAHAQSIGMNRLTESINRDSEEPFSSVEIQAALSKMQDDNQVMVSEGIIFLI
